Assay results as given in the supplement of paper PMC11006884.
Only a part is listed here, and it is no random draw.

By UniProt entry, the sequences of proteins in these tests, tags left out. Where a name states a change or a piece, a line headed by the entry shows the natural chain unless it says otherwise.
UniProt Q01844: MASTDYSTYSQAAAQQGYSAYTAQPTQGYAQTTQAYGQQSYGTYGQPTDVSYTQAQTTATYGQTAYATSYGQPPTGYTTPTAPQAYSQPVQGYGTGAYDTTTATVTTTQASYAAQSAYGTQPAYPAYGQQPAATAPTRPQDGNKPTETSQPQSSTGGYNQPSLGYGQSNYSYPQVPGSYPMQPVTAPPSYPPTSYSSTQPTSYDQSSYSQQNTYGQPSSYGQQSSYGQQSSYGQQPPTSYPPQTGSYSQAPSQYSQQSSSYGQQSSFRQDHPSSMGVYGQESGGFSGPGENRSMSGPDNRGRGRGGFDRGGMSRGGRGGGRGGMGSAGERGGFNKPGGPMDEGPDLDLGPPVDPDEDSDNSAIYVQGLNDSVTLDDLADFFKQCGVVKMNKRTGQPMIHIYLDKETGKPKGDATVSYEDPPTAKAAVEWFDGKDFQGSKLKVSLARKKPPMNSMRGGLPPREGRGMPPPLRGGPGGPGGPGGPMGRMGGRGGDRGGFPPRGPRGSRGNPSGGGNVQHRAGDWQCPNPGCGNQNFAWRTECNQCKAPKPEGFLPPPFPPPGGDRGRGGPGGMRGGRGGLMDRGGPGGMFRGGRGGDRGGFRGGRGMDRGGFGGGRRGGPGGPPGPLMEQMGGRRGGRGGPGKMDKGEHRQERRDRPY
UniProt Q00839, whole entry, looked up: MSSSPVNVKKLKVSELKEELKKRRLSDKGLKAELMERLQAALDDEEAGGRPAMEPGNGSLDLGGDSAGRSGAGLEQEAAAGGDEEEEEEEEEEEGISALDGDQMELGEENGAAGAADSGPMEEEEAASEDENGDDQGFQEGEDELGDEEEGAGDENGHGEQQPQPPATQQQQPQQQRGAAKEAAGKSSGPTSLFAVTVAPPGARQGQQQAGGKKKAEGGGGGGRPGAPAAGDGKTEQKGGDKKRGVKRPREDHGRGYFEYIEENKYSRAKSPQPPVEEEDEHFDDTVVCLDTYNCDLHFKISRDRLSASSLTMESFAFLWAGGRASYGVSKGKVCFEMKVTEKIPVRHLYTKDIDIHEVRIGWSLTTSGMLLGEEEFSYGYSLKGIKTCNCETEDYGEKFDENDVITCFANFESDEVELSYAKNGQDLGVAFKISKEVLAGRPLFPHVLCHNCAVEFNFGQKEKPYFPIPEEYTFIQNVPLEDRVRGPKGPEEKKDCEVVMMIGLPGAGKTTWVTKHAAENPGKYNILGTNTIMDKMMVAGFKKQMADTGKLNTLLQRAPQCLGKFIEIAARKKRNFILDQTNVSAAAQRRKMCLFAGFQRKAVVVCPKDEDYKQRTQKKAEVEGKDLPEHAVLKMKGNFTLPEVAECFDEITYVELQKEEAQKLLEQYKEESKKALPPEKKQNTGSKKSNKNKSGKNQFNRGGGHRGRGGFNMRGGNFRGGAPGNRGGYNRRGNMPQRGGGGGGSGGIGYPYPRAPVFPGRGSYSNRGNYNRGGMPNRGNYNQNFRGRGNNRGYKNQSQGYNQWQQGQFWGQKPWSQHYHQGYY
UniProt P78527, whole entry, looked up: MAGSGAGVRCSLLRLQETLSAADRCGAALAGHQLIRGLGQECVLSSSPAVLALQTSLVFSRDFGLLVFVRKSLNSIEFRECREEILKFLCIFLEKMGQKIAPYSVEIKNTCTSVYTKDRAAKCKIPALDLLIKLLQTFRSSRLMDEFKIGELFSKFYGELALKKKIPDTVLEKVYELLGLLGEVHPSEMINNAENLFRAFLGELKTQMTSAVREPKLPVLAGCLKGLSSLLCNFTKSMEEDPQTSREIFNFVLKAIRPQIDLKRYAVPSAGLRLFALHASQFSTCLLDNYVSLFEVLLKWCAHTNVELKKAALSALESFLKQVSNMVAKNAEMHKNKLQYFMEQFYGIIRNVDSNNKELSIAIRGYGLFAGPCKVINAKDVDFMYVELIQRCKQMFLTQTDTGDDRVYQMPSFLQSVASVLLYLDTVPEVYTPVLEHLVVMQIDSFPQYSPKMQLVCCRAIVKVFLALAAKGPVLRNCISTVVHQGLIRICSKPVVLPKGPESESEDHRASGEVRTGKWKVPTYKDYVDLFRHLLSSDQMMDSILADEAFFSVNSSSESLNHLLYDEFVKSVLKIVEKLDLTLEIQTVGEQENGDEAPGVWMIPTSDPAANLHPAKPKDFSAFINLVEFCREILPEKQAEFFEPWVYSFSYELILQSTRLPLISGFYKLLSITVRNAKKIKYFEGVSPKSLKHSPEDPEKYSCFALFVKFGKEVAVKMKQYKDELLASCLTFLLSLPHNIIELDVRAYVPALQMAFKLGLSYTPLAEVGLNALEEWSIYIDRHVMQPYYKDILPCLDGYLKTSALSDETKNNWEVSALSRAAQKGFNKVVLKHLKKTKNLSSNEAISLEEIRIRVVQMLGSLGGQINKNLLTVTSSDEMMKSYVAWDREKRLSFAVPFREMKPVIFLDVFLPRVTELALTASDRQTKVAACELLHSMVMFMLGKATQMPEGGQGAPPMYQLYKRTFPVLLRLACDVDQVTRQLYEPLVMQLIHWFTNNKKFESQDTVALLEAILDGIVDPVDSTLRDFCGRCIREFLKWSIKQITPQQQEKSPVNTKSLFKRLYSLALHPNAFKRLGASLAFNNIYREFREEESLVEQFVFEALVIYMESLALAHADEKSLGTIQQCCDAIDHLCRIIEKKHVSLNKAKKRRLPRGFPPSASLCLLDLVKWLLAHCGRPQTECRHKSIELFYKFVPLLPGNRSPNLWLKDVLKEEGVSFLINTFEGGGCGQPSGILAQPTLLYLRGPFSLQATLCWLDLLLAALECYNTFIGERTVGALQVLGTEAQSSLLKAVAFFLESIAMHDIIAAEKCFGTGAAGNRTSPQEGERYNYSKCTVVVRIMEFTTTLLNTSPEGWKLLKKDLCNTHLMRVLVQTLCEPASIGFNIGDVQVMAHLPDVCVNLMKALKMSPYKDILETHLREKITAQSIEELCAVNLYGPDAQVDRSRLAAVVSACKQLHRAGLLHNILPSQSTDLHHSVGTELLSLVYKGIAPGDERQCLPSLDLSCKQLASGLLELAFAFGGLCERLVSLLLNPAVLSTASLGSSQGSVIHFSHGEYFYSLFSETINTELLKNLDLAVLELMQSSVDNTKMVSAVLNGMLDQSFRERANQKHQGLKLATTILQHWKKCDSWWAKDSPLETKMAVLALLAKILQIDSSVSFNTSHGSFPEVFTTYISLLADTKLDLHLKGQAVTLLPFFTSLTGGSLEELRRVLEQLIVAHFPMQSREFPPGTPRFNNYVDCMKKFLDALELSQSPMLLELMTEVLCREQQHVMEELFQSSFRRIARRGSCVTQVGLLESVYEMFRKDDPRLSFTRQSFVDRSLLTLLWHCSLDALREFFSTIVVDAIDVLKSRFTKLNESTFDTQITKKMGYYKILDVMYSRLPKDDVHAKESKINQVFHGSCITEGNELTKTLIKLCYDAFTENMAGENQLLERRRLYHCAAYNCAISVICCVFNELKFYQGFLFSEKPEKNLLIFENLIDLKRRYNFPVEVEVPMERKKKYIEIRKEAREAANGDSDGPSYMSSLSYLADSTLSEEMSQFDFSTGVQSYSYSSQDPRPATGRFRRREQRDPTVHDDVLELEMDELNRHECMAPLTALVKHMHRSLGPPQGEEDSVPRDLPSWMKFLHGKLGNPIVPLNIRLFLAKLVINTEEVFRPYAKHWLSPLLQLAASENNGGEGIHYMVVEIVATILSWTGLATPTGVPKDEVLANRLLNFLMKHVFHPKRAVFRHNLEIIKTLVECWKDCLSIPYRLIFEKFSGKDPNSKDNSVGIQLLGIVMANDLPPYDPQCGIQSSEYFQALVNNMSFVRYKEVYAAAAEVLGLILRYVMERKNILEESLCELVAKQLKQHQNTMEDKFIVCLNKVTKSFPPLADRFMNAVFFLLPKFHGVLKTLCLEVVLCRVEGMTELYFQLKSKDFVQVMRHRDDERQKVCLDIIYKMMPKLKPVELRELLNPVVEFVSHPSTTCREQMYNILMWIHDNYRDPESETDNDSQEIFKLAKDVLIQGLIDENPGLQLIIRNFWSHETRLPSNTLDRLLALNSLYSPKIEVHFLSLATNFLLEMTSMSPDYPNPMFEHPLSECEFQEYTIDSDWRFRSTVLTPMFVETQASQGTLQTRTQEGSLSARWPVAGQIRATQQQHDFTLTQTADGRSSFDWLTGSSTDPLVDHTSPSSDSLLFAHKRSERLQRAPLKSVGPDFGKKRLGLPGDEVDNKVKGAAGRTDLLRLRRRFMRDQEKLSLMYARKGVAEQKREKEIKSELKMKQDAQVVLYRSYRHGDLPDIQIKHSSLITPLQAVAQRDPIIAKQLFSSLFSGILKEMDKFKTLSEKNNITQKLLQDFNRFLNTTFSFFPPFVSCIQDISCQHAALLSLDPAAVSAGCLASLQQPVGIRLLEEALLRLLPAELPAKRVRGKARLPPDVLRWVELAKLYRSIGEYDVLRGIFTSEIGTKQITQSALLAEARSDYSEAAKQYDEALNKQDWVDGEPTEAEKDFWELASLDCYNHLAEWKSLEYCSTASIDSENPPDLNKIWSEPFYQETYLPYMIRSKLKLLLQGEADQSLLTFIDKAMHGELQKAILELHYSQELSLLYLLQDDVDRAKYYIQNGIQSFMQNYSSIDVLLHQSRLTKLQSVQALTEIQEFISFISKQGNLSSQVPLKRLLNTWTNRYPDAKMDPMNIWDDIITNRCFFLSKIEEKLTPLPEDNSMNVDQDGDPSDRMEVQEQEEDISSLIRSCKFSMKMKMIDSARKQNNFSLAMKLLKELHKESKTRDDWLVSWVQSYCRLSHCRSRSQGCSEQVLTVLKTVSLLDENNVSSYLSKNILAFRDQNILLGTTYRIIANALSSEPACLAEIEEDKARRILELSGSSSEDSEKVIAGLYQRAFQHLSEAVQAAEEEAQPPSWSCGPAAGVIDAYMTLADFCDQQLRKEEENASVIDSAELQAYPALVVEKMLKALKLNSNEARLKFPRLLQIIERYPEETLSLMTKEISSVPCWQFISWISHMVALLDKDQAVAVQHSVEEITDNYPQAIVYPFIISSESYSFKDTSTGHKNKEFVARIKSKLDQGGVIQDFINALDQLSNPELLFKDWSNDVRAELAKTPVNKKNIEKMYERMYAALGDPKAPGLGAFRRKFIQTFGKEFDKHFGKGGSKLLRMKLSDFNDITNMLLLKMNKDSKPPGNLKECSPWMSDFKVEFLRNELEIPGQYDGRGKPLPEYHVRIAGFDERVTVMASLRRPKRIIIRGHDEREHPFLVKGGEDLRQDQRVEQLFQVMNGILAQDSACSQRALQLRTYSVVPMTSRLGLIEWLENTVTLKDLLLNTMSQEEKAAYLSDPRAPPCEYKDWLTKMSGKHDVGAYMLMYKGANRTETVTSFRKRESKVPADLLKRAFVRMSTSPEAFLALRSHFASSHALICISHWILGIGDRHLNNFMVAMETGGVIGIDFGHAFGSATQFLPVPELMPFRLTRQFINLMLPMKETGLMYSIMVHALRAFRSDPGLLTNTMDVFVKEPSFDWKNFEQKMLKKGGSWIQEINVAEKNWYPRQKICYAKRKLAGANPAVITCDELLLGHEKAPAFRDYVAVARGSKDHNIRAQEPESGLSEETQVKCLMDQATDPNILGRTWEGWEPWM
UniProt P67870, whole entry: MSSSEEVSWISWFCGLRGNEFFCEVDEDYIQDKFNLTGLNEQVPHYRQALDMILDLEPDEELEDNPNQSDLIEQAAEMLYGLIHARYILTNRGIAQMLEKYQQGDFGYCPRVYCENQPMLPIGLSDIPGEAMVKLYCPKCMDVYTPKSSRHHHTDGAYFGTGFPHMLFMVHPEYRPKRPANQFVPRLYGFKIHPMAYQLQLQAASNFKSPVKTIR
UniProt P62312: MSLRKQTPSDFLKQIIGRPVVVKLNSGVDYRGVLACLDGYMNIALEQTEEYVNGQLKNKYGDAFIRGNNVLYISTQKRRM
UniProt P63167, whole entry, looked up: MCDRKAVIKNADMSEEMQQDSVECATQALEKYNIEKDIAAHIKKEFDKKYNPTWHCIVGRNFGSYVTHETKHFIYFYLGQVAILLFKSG
UniProt P68104, whole entry, looked up: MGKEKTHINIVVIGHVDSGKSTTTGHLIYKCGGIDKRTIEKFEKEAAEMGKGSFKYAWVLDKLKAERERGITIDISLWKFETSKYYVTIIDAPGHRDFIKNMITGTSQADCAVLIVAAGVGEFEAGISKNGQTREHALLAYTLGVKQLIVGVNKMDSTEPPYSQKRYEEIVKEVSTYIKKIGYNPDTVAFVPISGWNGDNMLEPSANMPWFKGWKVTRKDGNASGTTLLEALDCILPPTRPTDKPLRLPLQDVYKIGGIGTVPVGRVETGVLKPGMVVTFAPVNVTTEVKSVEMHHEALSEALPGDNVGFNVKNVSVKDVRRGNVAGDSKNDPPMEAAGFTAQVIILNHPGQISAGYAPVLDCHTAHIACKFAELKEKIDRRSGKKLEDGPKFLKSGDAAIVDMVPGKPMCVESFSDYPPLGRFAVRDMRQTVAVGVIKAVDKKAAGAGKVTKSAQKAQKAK

Compound: COC(=O)C#Cc1ccccc1 [methyl 3-phenylpropiolate]
Assay: log2 ratio of iodoacetamide-alkyne labeling of the cysteine site, DMSO over compound (competition); higher = stronger covalent engagement of the cysteine by the compound, active = 1 or more
Conditions: 500 µM; treatment time 1 h; system: HEK293T cell lysate
In short: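 HEK293T lysate (2 mg/mL) was incubated with electrophile (500 µM) or vehicle for 1 h at ambient temperature and then with iodoacetamide alkyne for 1 h. Labelled proteins were clicked to sCIP-TMT reagents, pooled, digested, enriched on streptavidin and measured by Orbitrap Eclipse LC-MS/MS with FAIMS, with FragPipe quantification. The per-cysteine log2 competition ratio is mean control-channel reporter intensity over mean compound-channel reporter intensity. Across three replicates with duplicate channels, cysteines quantified in only one replicate were excluded.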

log2 ratio of iodoacetamide-alkyne labeling, inactive:
UniProt P62995_C118 -0.0473
UniProt P84095_C157 0.279
PPIA C161 (UniProt P62937) -0.0423
UniProt Q00341_C948 0.167
KIF23 C135 (UniProt Q02241) 0.273
EWSR1 C540 (UniProt Q01844) -0.123
HNRNPU C607 (UniProt Q00839) 0.39
UniProt P62913_C150 0.594
PFKP C664 (UniProt Q01813) 0.268
UniProt P78527_C3781 0.281
CSNK2B C114 (UniProt P67870) -0.0614
UniProt P83731_C6 0.668
UniProt P62753_C12 0.196
UniProt P78527_C630 0.0548
MRPS5 C211 (UniProt P82675) 0.289
TPM4 C247 (UniProt P67936) 0.127
UniProt P68363_C129 0.276
MRPS21 C87 (UniProt P82921) 0.059
EWSR1 C543 (UniProt Q01844) -0.129
DR1 C94 (UniProt Q01658) 0.311
CDK5 C157 (UniProt Q00535) 0.141
UniProt P62312_C36 0.139
RPL7A C174 (UniProt P62424) -0.0802
UniProt P78527_C703 -0.0289
RPS27A C144 (UniProt P62979) -0.175
TFAP4 C29 (UniProt Q01664) 0.367
SORD C350 (UniProt Q00796) 0.259
EWSR1 C524 (UniProt Q01844) -0.141
P86790_C471 (UniProt P86791+P86790) 0.369
OGDH C283 (UniProt Q02218) 0.00135
EXOSC10 C73 (UniProt Q01780) 0.348
UniProt P63167_C56 0.0644
EEF1A1 C31 (UniProt P68104) 0.126
CDC42EP1 C161 (UniProt Q00587) 0.313
UniProt P62487_C106 0.138
UniProt P62753_C83 0.548
SORD C130 (UniProt Q00796) 0.000899

Already shown: entries from further up.
log2 ratio of iodoacetamide-alkyne labeling, inactive:
KIF23 C135 (UniProt Q02241) 0.273
EWSR1 C540 (UniProt Q01844) -0.123
